Laboratory results published in patent US20070134236A1.
Where a chain is given by its changes, count along the chain named. These are yes or no findings as the source states them, for the method shown. Some results given as binding are weak or reduced against the parent protein; the word gives no strength.

Protein sequences, listed by entry. Tags and fused reporters are not part of them. Residues count along the entry.
UniProt P10148, residues 24-148: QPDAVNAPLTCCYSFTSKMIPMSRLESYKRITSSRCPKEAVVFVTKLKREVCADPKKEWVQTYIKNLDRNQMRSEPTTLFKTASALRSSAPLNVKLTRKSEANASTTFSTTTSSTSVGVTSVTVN
UniProt Q62401, residues 23-104: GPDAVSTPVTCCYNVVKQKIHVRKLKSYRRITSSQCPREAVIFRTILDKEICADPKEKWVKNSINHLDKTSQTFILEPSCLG

B1: chimeric 11K2 antibody (antibody, human IgG1, kappa, V domains shown)
VH: EVQLQQSGAELVKAGASVKLSCPASGLNIKDTYMHWVKQRPEQGLEWIGRIDPANGNTKFDPKFQGKATITADTSSNTAYLQLSSLTSEDTAVYYCARGVFGFFDYWGQGTTLTVSS
VL: DIQMTQSSSSFSVSLGDRVTITCKATEDIYNRLAWYQQKPGSAPRLLISGATSLETGVPSRFSGSGSGKDYTLSITSLQTEDVATYYCQQFWSAPYTFGGGTKLEIKR
B2: humanized 11K2 H1-L1 (antibody, human IgG1, kappa, V domains shown)
VH: QVQLVQSGAEVKKPGSSVKVSCKASGLNIKDTYMHWVRQAPGQGLEWIGRIDPANGNTKFDPKFQGRATITADTSTSTAYMELSSLRSEDTAVYYCARGVFGFFDYWGQGTTVTVSS
VL: DIQMTQSPSSLSASVGDRVTITCKATEDIYNRLAWYQQKPGKAPKLLISGATSLETGVPSRFSGSGSGKDYTLTISSLQPEDFATYYCQQFWSAPYTFGGGTKVEIKR
B3: humanized 11K2 H2-L1 (antibody, human IgG1, kappa, V domains shown)
VH: B2 VH with N28T, K30S, I48M, A68V
VL: B2 VL
B4: monoclonal antibody 4N4 (antibody, mouse IgG1, V domains shown)
VH: B1 VH
VL: DIQMTQSSSSFSVSLGDRVTITCKATEDIYNRLAWYQQKPGSAPRLLISGATSLETGVPSRFSGSGSGKDYTLSITSLQTEDVATYYCQQFWSAPYTFGGGTKLEIK
B5: monoclonal antibody 5A13 (antibody, mouse IgG1, V domains shown)
VH: B1 VH
VL: B4 VL
B6: monoclonal antibody 6D21 (antibody, mouse IgG1, V domains shown)
VH: B1 VH
VL: B4 VL
B7: monoclonal antibody 6I5 (antibody, mouse IgG1, V domains shown)
VH: B1 VH
VL: B4 VL
B8: monoclonal antibody 7H1 (antibody, mouse IgG1, V domains shown)
VH: B1 VH
VL: B4 VL
B9: mouse monoclonal antibody 11K2 (antibody, V domains shown)
VH: B1 VH
VL: B4 VL

Molecular target: primate MCP-1 (cynomolgus and rhesus) (UniProt P61274)
Assay: ELISA

binding, binds:
B1, B2, B3

Molecular target: primate MCP-1 (cynomolgus and rhesus) (UniProt P61274)
Assay: ELISA, FIG. 14

binding, binds:
B1, B2, B3

Molecular target: human MCP-1 (human) (UniProt P13500)
Assay: ELISA, hybridoma supernatant

binding, binds:
B4, B5, B6, B7, B8

Molecular target: primate MCP-1 (cynomolgus and rhesus) (UniProt P61274)
Assay: ELISA, 50 ng MCP-1 per well

binding, binds:
B1, B2, B3

Molecular target: human MCP-1 (human) (UniProt P13500)
Assay: ELISA, purified mAb 10 µg/ml

binding, binds:
B4, B5, B6, B7, B8

Molecular target: murine MCP-1 (JE) (mouse) (UniProt P10148)
Assay: ELISA, purified mAb 10 µg/ml

binding, binds:
B4, B5, B6, B7, B8

Molecular target: murine MCP-3 (mouse) (UniProt Q03366)
Assay: ELISA, purified mAb 10 µg/ml

binding, binds:
B4, B5, B6, B7, B8

Molecular target: murine MCP-5 (mouse) (UniProt Q62401)
Assay: ELISA, purified mAb 10 µg/ml

binding, binds:
B4, B5, B6, B7, B8

Molecular target: human MCP-1 (human) (UniProt P13500)
Assay: summary of Tables 3 and 5 (ELISA)

binding, binds:
B4, B5, B6, B7, B8

Molecular target: primate MCP-1 (cynomolgus and rhesus) (UniProt P61274)
Assay: ELISA, antigen immobilized, 293-EBNA transfectants

binding, binds:
B2, B3

Molecular target: primate MCP-1 (cynomolgus and rhesus) (UniProt P61274)
Assay: ELISA, mAb 10 µg/ml on synthetic cynomolgus and rhesus MCP-1

binding, binds:
B9

Molecular target: primate MCP-1 (cynomolgus and rhesus) (UniProt P61274)
Assay: ELISA on plate-coated primate MCP-1, anti-human IgG-HRP; y axis unlabelled, OD 405 nm per paragraph 382

binding, binds:
B1, B2, B3
